Assay results as given in US20160033528A1, “Methods for Selecting Peptides that Bind to Disease Specific Antibodies, Disease Specific Peptides and Uses Thereof” (The Regents of the University of California, priority 2014, published 2016).

Test system: anti-CSE antibodies (serum IgA)
Test: Serum IgA reactivity to CSE peptide in CD and non-CD sera (n=231)
Assay type: binding, human
Protocol: Directed evolution pooled clone & individual patient single clone reactivity assays. To compare the reactivity of consensus epitopes from each generation, overnight cultures of individual clones within a consensus epitope family (4-5 clones/family) were diluted (1:50) in fresh media and grown until the OD600 was between 0.5 and 0.7. Cultures of each individual Clones were induced for 45 min, and 10^6 cells from each culture were pooled together. Pooled consensus epitope families were assayed for binding to case and control group sera (3 subjects/group) by flow cytometry. […] Cells expressing the eCPX scaffold without a peptide insert were used as a negative (background) control. To measure the reactivity of individual isolated mimotopes with individual patient sera, assays were similarly performed, except that a 1:100 or 1:200 serum dilutions were used for IgA and IgG isotype analysis, respectively. Non-parametric analysis tests including Wilcoxon signed rank test and Spearman's rank correlation coefficient were used to determine statistical significance and correlation values. Significance cutoff was defined as p<0.05.
To determine prevalence of anti-CSE antibodies in CD and control subjects, CD and non-CD sera (n=231) were assessed for reactivity to the CSE peptide: MDVRCRDSFVYQCHVGT (SEQ ID NO: 2). […] To determine if the serum antibody titer against the CSE epitope dissipated after the introduction of a gluten-free diet (GFD), sera from 11 CD cases obtained at time-of-diagnosis or after one year on a GFD were assayed.

## MDVRCRDSFVYQCHVGT [CSE peptide]
  sensitivity: 71%
  sensitivity (reactive CD sera/total CD): 65/92
  specificity: 99%
  specificity (number/total non-CD as printed): 2/139
